Laboratory results as given in ChEMBL document CHEMBL4477199, “Design and synthesis of novel bicalutamide and enzalutamide derivatives as antiproliferative agents for the treatment of prostate cancer” (Eur J Med Chem, 2016).

Assays:
[1] = 96 h
[2] = 33000 µM

With `CC(O)(CSc1ccccc1C(F)(F)F)C(=O)Nc1ccc(C#N)c(C(F)(F)F)c1` (stereo unspecified) the solubility [1] was “Soluble” and the solubility [2] was “Soluble”.

In the case of `C[C@](O)(CSc1ccccc1C(F)(F)F)C(=O)Nc1ccc(C#N)c(C(F)(F)F)c1`, the solubility [1] is reported as “Soluble” and the solubility [2] is reported as “Soluble”.

In the case of `CC(O)(COc1ccc(C#N)cc1C(F)(F)F)C(=O)Nc1ccc([N+](=O)[O-])c(C(F)(F)F)c1` (stereo unspecified), the solubility [1] is reported as “Soluble” and the solubility [2] is reported as “Soluble”.
